{"sequences": {"note": "The chains behind the UniProt entries cited, without tags or fusion partners. Where a name states a change or a piece, a line headed by the entry shows the natural chain unless it says otherwise. Residues count along the entry.", "UniProt P02545, residues 1-646": "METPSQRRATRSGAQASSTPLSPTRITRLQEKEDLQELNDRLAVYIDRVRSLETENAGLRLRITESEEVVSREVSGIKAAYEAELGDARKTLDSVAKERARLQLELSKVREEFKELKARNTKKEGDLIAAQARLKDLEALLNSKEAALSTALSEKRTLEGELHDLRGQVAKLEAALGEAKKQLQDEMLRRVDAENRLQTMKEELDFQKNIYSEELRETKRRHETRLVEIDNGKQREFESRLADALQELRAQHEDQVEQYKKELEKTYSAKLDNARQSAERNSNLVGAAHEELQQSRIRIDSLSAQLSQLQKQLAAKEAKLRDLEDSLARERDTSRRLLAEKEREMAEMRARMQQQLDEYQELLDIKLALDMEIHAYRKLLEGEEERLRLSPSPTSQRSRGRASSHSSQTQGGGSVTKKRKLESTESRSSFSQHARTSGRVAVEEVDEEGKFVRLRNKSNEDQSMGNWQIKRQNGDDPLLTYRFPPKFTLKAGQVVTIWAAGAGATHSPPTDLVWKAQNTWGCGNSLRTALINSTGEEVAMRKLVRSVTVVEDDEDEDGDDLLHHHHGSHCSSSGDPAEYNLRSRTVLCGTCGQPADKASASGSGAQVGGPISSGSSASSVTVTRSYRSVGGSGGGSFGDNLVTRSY", "UniProt P48681": "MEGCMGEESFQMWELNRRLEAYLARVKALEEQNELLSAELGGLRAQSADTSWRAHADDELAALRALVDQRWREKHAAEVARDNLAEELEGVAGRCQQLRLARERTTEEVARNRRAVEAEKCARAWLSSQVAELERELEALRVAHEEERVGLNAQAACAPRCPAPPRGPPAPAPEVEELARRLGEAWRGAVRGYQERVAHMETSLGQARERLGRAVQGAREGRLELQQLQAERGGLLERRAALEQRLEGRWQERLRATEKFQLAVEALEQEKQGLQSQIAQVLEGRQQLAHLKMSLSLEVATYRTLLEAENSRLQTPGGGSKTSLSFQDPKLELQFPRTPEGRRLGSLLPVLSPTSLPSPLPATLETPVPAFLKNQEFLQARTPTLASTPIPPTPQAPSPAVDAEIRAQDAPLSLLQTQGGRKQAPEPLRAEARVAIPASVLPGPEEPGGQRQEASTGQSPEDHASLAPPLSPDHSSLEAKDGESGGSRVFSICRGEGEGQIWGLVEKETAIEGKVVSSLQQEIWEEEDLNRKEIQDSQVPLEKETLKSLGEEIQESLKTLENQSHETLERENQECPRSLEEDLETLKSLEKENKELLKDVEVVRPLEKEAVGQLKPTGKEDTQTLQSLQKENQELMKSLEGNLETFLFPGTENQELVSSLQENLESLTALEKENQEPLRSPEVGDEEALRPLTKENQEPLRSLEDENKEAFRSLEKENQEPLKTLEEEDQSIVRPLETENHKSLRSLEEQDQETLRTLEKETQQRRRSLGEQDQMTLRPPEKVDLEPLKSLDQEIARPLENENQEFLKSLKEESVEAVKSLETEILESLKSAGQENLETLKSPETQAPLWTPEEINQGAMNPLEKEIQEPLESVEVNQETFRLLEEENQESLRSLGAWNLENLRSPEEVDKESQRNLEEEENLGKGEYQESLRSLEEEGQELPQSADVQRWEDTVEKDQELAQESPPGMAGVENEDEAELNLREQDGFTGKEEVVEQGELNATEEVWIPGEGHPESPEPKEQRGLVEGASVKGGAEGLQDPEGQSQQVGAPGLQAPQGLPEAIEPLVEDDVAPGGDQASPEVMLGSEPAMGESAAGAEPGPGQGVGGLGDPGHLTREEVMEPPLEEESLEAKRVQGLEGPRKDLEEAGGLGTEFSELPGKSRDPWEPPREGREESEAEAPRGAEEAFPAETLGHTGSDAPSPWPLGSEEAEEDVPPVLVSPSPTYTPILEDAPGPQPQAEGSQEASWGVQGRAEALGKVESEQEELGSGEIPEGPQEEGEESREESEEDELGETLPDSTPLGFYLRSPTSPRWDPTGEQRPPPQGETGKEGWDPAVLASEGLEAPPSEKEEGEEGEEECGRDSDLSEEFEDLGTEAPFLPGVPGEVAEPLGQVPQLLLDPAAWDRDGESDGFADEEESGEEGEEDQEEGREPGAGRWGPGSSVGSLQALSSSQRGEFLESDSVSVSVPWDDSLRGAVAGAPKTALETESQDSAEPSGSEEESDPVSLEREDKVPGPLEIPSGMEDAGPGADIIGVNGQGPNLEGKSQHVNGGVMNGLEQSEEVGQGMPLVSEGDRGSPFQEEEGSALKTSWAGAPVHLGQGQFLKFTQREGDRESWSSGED"}, "source": "paper PMC6127343", "target": "lamin A/C (human (endogenous in A549, H1299 and HEK293T)) (UniProt P02545)", "test": "co-IP; anti-lamin A/C immunoprecipitation of endogenous lamin A/C from HEK293T cells ectopically expressing Myc-Nestin constructs; Pierce IP lysis buffer, overnight at 4 °C, Dynabeads Protein G", "note": "No constants are given. Whether binding was seen depends on the method and setting. Binding seen in cells or lysates may run through a third protein. Binding can be weak; no strength is given."}
{"substance": "Myc-Nestin C terminus of the rod domain (aa182-aa313) (from UniProt P48681) (domain or fragment)", "values": [{"measurement": "binding", "value": "binds"}]}
